PubChem BioAssay AID504784, Drosophila RNAi Screening Center, 2011
Assay: 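Genome-wide knock-down for genes giving too much or too little stored lipid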 (primary screen). Cells: Drosophila Kc167 embryonic cells. Reagents: long dsRNA against Drosophila genes, about 250 ng dsRNA per well. Time to read-out: 4 days. Conditions: cells fed 400 µM oleic acid bound to BSA. Measurement: 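Microscope images give a droplet-to-nucleus area ratio, taken as log and converted to a screen-wide B-score; higher values mean greater lipid storage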. Reading the numbers: droplet/nuclear area B-score: higher = more stored lipid (overstorage).
The screen tested about 17,000 reagents; below is an unselected part of those with a known target gene and a result. 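Each column is one replicate's B-score; the combined score over replicates was not deposited, so single values may mislead.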 The numbers tell different reagents against one gene apart. Names joined by + are all predicted targets of the reagent. Further read-outs or replicates are left out here.

Silencing of Naus (Nausicaa) #1 gave: droplet/nuclear area B-score, replicate 1 = 0.0176. After knock-down of Naus (Nausicaa) #2 the results were droplet/nuclear area B-score, replicate 1 = 0.24. Against CG11475, the values are droplet/nuclear area B-score, replicate 1 = -0.618. Depletion of CG6709 + Hez #1 came out at: droplet/nuclear area B-score, replicate 1 = 1.41. CG6709 + Hez #2 scored droplet/nuclear area B-score, replicate 1 = -0.651. Against CG6138 the deposit lists droplet/nuclear area B-score, replicate 1 = 0.173.

After knock-down of TotX (Turandot X) the results were droplet/nuclear area B-score, replicate 1 = 3.81. Crag scored droplet/nuclear area B-score, replicate 1 = -2.31. RpL23A (Ribosomal protein L23A) #1 showed droplet/nuclear area B-score, replicate 1 = 2.09. After knock-down of RpL23A (Ribosomal protein L23A) #2, the record shows droplet/nuclear area B-score, replicate 1 = -0.0304. For wbl (windbeutel), the values are droplet/nuclear area B-score, replicate 1 = -0.106. Knock-down of Sema2b (Semaphorin 2b) #1 came out at: droplet/nuclear area B-score, replicate 1 = -0.809.

Knock-down of Sema2b (Semaphorin 2b) #2 came out at: droplet/nuclear area B-score, replicate 1 = -0.24. Sytalpha (Synaptotagmin alpha) showed droplet/nuclear area B-score, replicate 1 = -1.6. Knock-down of Pex13 (Peroxin 13) came out at: droplet/nuclear area B-score, replicate 1 = 1.5. For Acp53Ea (Accessory gland protein 53Ea) the deposit lists droplet/nuclear area B-score, replicate 1 = -0.0533. With knock-down of Ran, the screen gave droplet/nuclear area B-score, replicate 1 = 0.237. With knock-down of CG5953 #1, the screen gave droplet/nuclear area B-score, replicate 1 = 0.131.

Depletion of CG5953 #2 came out at: droplet/nuclear area B-score, replicate 1 = 4.99. Silencing of Eig71Ec (Ecdysone-induced gene 71Ec) came out at: droplet/nuclear area B-score, replicate 1 = 1.51. For CG31510, the entry reads droplet/nuclear area B-score, replicate 1 = -0.272. With knock-down of G9a, the screen gave droplet/nuclear area B-score, replicate 1 = -1.12. With knock-down of Fmo-2 (Flavin-containing monooxygenase 2), the record shows droplet/nuclear area B-score, replicate 1 = 0.958. Knock-down of RasGAP1 (Ras GTPase activating protein 1) gave: droplet/nuclear area B-score, replicate 1 = 0.36.

Against CG42562, the entry reads droplet/nuclear area B-score, replicate 1 = -0.0496. Against CG13227, the entry reads droplet/nuclear area B-score, replicate 1 = 0.0199. 5-HT1B (5-hydroxytryptamine (serotonin) receptor 1B) #1 showed droplet/nuclear area B-score, replicate 1 = -2.71. For 5-HT1B (5-hydroxytryptamine (serotonin) receptor 1B) #2, the entry reads droplet/nuclear area B-score, replicate 1 = -2.08. CG33090 showed droplet/nuclear area B-score, replicate 1 = -0.19. Knock-down of ref(2)P (refractory to sigma P) gave: droplet/nuclear area B-score, replicate 1 = -0.254.

Silencing of Pof (Painting of fourth) resulted in: droplet/nuclear area B-score, replicate 1 = 0.0597. CG17362 scored droplet/nuclear area B-score, replicate 1 = -0.408. CG13972 showed droplet/nuclear area B-score, replicate 1 = -0.932. Against coro (Coronin) #1, the entry reads droplet/nuclear area B-score, replicate 1 = 0.327. coro (Coronin) #2 showed droplet/nuclear area B-score, replicate 1 = -2.85. With knock-down of CG32137 #1, the screen gave droplet/nuclear area B-score, replicate 1 = 0.232.

Against CG32137 #2, the entry reads droplet/nuclear area B-score, replicate 1 = 1.8. After knock-down of CG4730 the results were droplet/nuclear area B-score, replicate 1 = 0.903. For GlcT (Glucosylceramide synthase), the entry reads droplet/nuclear area B-score, replicate 1 = -0.365. For ms(2)34Fe (male sterile (2) 34Fe) the deposit lists droplet/nuclear area B-score, replicate 1 = 0.964. Knock-down of CG17294 came out at: droplet/nuclear area B-score, replicate 1 = -0.397. After knock-down of mol (moladietz) #1, the screen gave droplet/nuclear area B-score, replicate 1 = -0.666.

mol (moladietz) #2 showed droplet/nuclear area B-score, replicate 1 = -0.553. mol (moladietz) #3 scored droplet/nuclear area B-score, replicate 1 = -0.0587. For sip1 (septin interacting protein 1) #1, the values are droplet/nuclear area B-score, replicate 1 = -1.57. With knock-down of sip1 (septin interacting protein 1) #2 the results were droplet/nuclear area B-score, replicate 1 = -1.37. For mIF3 (mitochondrial translation initiation factor 3), the values are droplet/nuclear area B-score, replicate 1 = 0.962. Silencing of Cpr47Eg (Cuticular protein 47Eg) gave: droplet/nuclear area B-score, replicate 1 = -0.881.

tous (testes of unusual size) scored droplet/nuclear area B-score, replicate 1 = 1.11. With knock-down of Rab9D + Rab9Fa + Rab9E, the record shows droplet/nuclear area B-score, replicate 1 = 0.412. With knock-down of CG4650, the screen gave droplet/nuclear area B-score, replicate 1 = -0.017.

A stretch of the results above:
TotX (Turandot X) — droplet/nuclear area B-score, replicate 1 = 3.81
Crag — droplet/nuclear area B-score, replicate 1 = -2.31
RpL23A (Ribosomal protein L23A) #1 — droplet/nuclear area B-score, replicate 1 = 2.09
RpL23A (Ribosomal protein L23A) #2 — droplet/nuclear area B-score, replicate 1 = -0.0304
wbl (windbeutel) — droplet/nuclear area B-score, replicate 1 = -0.106
Sema2b (Semaphorin 2b) #1 — droplet/nuclear area B-score, replicate 1 = -0.809
Sema2b (Semaphorin 2b) #2 — droplet/nuclear area B-score, replicate 1 = -0.24
